{"source": "paper PMC10570038", "note": "Results are given in words; binding and its absence hold for the method and conditions named. In cells and extracts the contact can be indirect. Binding can be weak; no strength is given.", "data": [{"target": "StrepII-His6-RBPMS-A ΔC20 (rat)", "test": "pull-down; 2 μM StrepII-His6-RBPMS variant in 60% HeLa NE, 2.2 mM MgCl2, 2.6% PVA, 30°C 15 min; MagStrep 'type3' XT beads; six washes with 150 mM KCl buffer; elution with biotin; immunoblot; only the target purified", "values": [{"binder": "RBM14 (protein, UniProt Q96PK6 1-669) MKIFVGNVDGADTTPEELAALFAPYGTVMSCAVMKQFAFVHMRENAGALRAIEALHGHELRPGRALVVEMSRPRPLNTWKIFVGNVSAACTSQELRSLFERRGRVIECDVVKDYAFVHMEKEADAKAAIAQLNGKEVKGKRINVELSTKGQKKGPGLAVQSGDKTKKPGAGDTAFPGTGGFSATFDYQQAFGNSTGGFDGQARQPTPPFFGRDRSPLRRSPPRASYVAPLTAQPATYRAQPSVSLGAAYRAQPSASLGVGYRTQPMTAQAASYRAQPSVSLGAPYRGQLASPSSQSAAASSLGPYGGAQPSASALSSYGGQAAAASSLNSYGAQGSSLASYGNQPSSYGAQAASSYGVRAAASSYNTQGAASSLGSYGAQAASYGAQSAASSLAYGAQAASYNAQPSASYNAQSAPYAAQQAASYSSQPAAYVAQPATAAAYASQPAAYAAQATTPMAGSYGAQPVVQTQLNSYGAQASMGLSGSYGAQSAAAATGSYGAAAAYGAQPSATLAAPYRTQSSASLAASYAAQQHPQAAASYRGQPGNAYDGAGQPSAAYLSMSQGAVANANSTPPPYERTRLSPPRASYDDPYKKAVAMSKRYGSDRRLAELSDYRRLSESQLSFRRSPTKSSLDYRRLPDAHSDYARYSGSYNDYLRAAQMHSGYQRRM", "binding": "binds"}, {"binder": "MATR3 (protein, UniProt P43243 1-847) MSKSFQQSSLSRDSQGHGRDLSAAGIGLLAAATQSLSMPASLGRMNQGTARLASLMNLGMSSSLNQQGAHSALSSASTSSHNLQSIFNIGSRGPLPLSSQHRGDADQASNILASFGLSARDLDELSRYPEDKITPENLPQILLQLKRRRTEEGPTLSYGRDGRSATREPPYRVPRDDWEEKRHFRRDSFDDRGPSLNPVLDYDHGSRSQESGYYDRMDYEDDRLRDGERCRDDSFFGETSHNYHKFDSEYERMGRGPGPLQERSLFEKKRGAPPSSNIEDFHGLLPKGYPHLCSICDLPVHSNKEWSQHINGASHSRRCQLLLEIYPEWNPDNDTGHTMGDPFMLQQSTNPAPGILGPPPPSFHLGGPAVGPRGNLGAGNGNLQGPRHMQKGRVETSRVVHIMDFQRGKNLRYQLLQLVEPFGVISNHLILNKINEAFIEMATTEDAQAAVDYYTTTPALVFGKPVRVHLSQKYKRIKKPEGKPDQKFDQKQELGRVIHLSNLPHSGYSDSAVLKLAEPYGKIKNYILMRMKSQAFIEMETREDAMAMVDHCLKKALWFQGRCVKVDLSEKYKKLVLRIPNRGIDLLKKDKSRKRSYSPDGKESPSDKKSKTDGSQKTESSTEGKEQEEKSGEDGEKDTKDDQTEQEPNMLLESEDELLVDEEEAAALLESGSSVGDETDLANLGDVASDGKKEPSDKAVKKDGSASAAAKKKLKKVDKIEELDQENEAALENGIKNEENTEPGAESSENADDPNKDTSENADGQSDENKDDYTIPDEYRIGPYQPNVPVGIDYVIPKTGFYCKLCSLFYTNEEVAKNTHCSSLPHYQKLKKFLNKLAEERRQKKET", "binding": "no binding (tested: 2 μM StrepII-His6-RBPMS)"}, {"binder": "RBFOX2 (protein, UniProt O43251 1-390) MQNEPLTPGYHGFPARDSQGNQEPTTTPDAMVQPFTTIPFPPPPQNGIPTEYGVPHTQDYAGQTGEHNLTLYGSTQAHGEQSSNSPSTQNGSLTTEGGAQTDGQQSQTQSSENSESKSTPKRLHVSNIPFRFRDPDLRQMFGQFGKILDVEIIFNERGSKGFGFVTFENSADADRAREKLHGTVVEGRKIEVNNATARVMTNKKMVTPYANGWKLSPVVGAVYGPELYAASSFQADVSLGNDAAVPLSGRGGINTYIPLISLPLVPGFPYPTAATTAAAFRGAHLRGRGRTVYGAVRAVPPTAIPAYPGVVYQDGFYGADLYGGYAAYRYAQPATATAATAAAAAAAAYSDGYGRVYTADPYHALAPAASYGVGAVASLYRGGYSRFAPY", "binding": "no binding (tested: 2 μM StrepII-His6-RBPMS)"}, {"binder": "ESRP2 (protein, UniProt Q9H6T0 1-727) MTPPPPPPPPPGPDPAADPAADPCPWPGSLVVLFGATAGALGRDLGSDETDLILLVWQVVEPRSRQVGTLHKSLVRAEAAALSTQCREASGLSADSLARAEPLDKVLQQFSQLVNGDVALLGGGPYMLCTDGQQLLRQVLHPEASRKNLVLPDMFFSFYDLRREFHMQHPSTCPARDLTVATMAQGLGLETDATEDDFGVWEVKTMVAVILHLLKEPSSQLFSKPEVIKQKYETGPCSDSTVPCPYSSKADVVDSETVVRARGLPWQSSDQDVARFFKGLNVARGGVALCLNAQGRRNGEALIRFVDSEQRDLALQRHKHHMGVRYIEVYKATGEEFVKIAGGTSLEVARFLSREDQVILRLRGLPFSAGPTDVLGFLGPECPVTGGTEGLLFVRHPDGRPTGDAFALFACEELAQAALRRHKGMLGKRYIELFRSTAAEVQQVLNRYASGPLLPTLTAPLLPIPFPLAPGTGRDCVRLRGLPYTATIEDILSFLGEAAADIRPHGVHMVLNQQGRPSGDAFIQMTSAERALAAAQRCHKKVMKERYVEVVPCSTEEMSRVLMGGTLGRSGMSPPPCKLPCLSPPTYTTFQATPTLIPTETAALYPSSALLPAARVPAAPTPVAYYPGPATQLYLNYTAYYPSPPVSPTTVGYLTTPTAALASAPTSVLSQSGALVRMQGVPYTAGMKDLLSVFQAYQLPADDYTSLMPVGDPPRTVLQAPKEWVCL", "binding": "no binding (tested: 2 μM StrepII-His6-RBPMS)"}]}]}
